Experimental data: PubChem BioAssay AID1259254 (NCATS, 2017)

Aim: 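Genome-wide screen for genes that prevent DNA re-replication in cancer cells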 (primary screen)
System: human HCT116 colorectal cancer cells
Knock-down reagent: single siRNA against human genes
Timing: 3 days
Read-out: 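Imaged Hoechst DNA stain sorts each cell into a cycle phase by DNA amount; per plate, G2 fraction set to 0% for non-targeting and 100% for GMNN siRNA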
Reading the numbers: G2 robust z-score and G2 cells, % of GMNN control: higher = more G2 cells, more excess DNA replication
Rule for the call: 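Active siRNAs have a G2 robust z of 5 or more median absolute deviations over the median, which in these data means about 38% or higher of GMNN control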
Here is an unselected part of about 59,000 deposited reagents. In the full data, about 1,550 (2.6%) were called active. 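G2 share is only a proxy for re-replication; each gene was hit by three separate siRNAs, and active genes were retested.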 Reagents against one gene are numbered here. Further read-outs or replicates are left out here. Not given: the amount of reagent.

Gene	reagent no.	G2 robust z-score	G2 cells, % of GMNN control	Outcome
GTPBP6	1	3.01	24.1	inactive
GTPBP6	2	-0.406	0.111	inactive
GTPBP6	3	1.02	10.1	inactive
GTF2E1	1	-0.484	-0.438	inactive
GTF2E1	2	3.15	25.1	inactive
GTF2E1	3	0.292	5.02	inactive
RBM44	1	0.099	3.66	inactive
RBM44	2	10.1	74	active
RBM44	3	-0.796	-2.63	inactive
LYAR	1	0.957	9.7	inactive
LYAR	2	0.343	5.38	inactive
LYAR	3	-0.697	-1.94	inactive
TRMT9B	1	0.551	6.85	inactive
TRMT9B	2	-0.0919	2.32	inactive
TRMT9B	3	-1.04	-4.35	inactive
RGP1	1	0.31	5.15	inactive
RGP1	2	2.91	23.4	inactive
RGP1	3	3.52	27.7	inactive
LINC02743	1	0.0529	3.34	inactive
LINC02743	2	0.0648	3.42	inactive
LINC02743	3	-0.623	-1.42	inactive
CREBRF	1	1.4	12.8	inactive
CREBRF	2	-0.791	-2.6	inactive
CREBRF	3	-0.257	1.16	inactive
TPGS2	1	0.0952	3.64	inactive
TPGS2	2	-0.387	0.244	inactive
TPGS2	3	2.35	19.5	inactive
C1QTNF9B	1	0.0191	3.1	inactive
C1QTNF9B	2	-0.627	-1.45	inactive
C1QTNF9B	3	-0.536	-0.806	inactive
OCLNP1	1	0.522	6.64	inactive
OCLNP1	2	1.77	15.4	inactive
OCLNP1	3	0.724	8.06	inactive
CDK12	1	-0.858	-3.07	inactive
CDK12	2	-0.395	0.187	inactive
CDK12	3	-0.622	-1.41	inactive
SLC7A9	1	-0.264	1.11	inactive
SLC7A9	2	-0.306	0.816	inactive
SLC7A9	3	-1.31	-6.23	inactive
FPR2	1	2.61	21.3	inactive
FPR2	2	-0.371	0.36	inactive
FPR2	3	1.37	12.6	inactive

Copied from the list:
Result for CDK12 #3 in “G2 robust z-score”: -0.622
Entry of TRMT9B #1 under “G2 robust z-score”: 0.551
Under “G2 cells, % of GMNN control”, LINC02743 #2 shows 3.42
Value for GTF2E1 #2 in “Outcome”: inactive
LYAR #1, Outcome → inactive
Under “Outcome”, LINC02743 #1 is entered as inactive

Next entries follow.
Gene	reagent no.	G2 robust z-score	G2 cells, % of GMNN control	Outcome
TMPRSS2	1	1.85	16	inactive
TMPRSS2	2	-1.1	-4.76	inactive
TMPRSS2	3	-0.493	-0.504	inactive
NCKAP5	1	-1.03	-4.26	inactive
NCKAP5	2	-0.579	-1.1	inactive
NCKAP5	3	0.4	5.78	inactive
CFAP20	1	2.02	17.2	inactive
CFAP20	2	-0.285	0.959	inactive
CFAP20	3	0.704	7.92	inactive
COCH	1	0.771	8.39	inactive
COCH	2	1.39	12.8	inactive
COCH	3	-0.949	-3.71	inactive
CST9L	1	-0.41	0.0839	inactive
CST9L	2	-0.087	2.35	inactive
CST9L	3	0.218	4.5	inactive
NLGN1	1	-0.0868	2.36	inactive
NLGN1	2	-0.458	-0.255	inactive
NLGN1	3	-0.541	-0.838	inactive
AMELY	1	0.702	7.9	inactive
AMELY	2	4.03	31.3	inactive
AMELY	3	-0.52	-0.693	inactive
PKHD1L1	1	0.17	4.17	inactive
PKHD1L1	2	-0.769	-2.44	inactive
PKHD1L1	3	-0.176	1.73	inactive
CRY2	1	1.45	13.2	inactive
CRY2	2	-0.782	-2.54	inactive
CRY2	3	-0.738	-2.22	inactive
